Reference: patent US11484608B2, “Non-invasive assessment of hepatic mitochondrial metabolism by positional isotopomer NMR tracer analysis (PINTA)” (YALE UNIVERSITY, priority 2017, dated 2022)

Tested on: hepatic glucose production, VPC and VCS (InsP3R-I signaling)
Assay: Acute 2 hr glucagon infusion in WT and liver-specific InsP3R-I KO mice
Assay type: in vivo, mouse
Text: All protocols were approved by the Yale University Animal Care and Use Committee. Liver-specific InsP3R-I KO mice were generated as described (Feriod, et al. Hepatology Communications 1, 23-35, 2017) and in all experiments, littermates were studied at 10-12 weeks of age. They were fed standard chow (Teklad #2018) and housed on a 12 hr light/dark cycle in the Yale Animal Resources Center. To knock down ATGL in a liver-specific manner, an adeno-associated virus targeting ATGL (Vector BioLabs, 10^12 gc per mouse) was administered by retro-orbital injection four weeks prior to studies. Male mice were used for in vivo studies, while female mice were used for in vitro studies, unless otherwise specified. One week prior to in vivo studies, mice underwent surgery under isoflurane anesthesia to place a catheter in the jugular vein. Post-surgical recovery was confirmed by regaining the pre-surgical body weight prior to any in vivo studies. They were fasted overnight, unless otherwise stated, prior to in vivo studies. […] Mice were euthanized using IV pentobarbital at the conclusion of the terminal study.
In the rat studies, blood was collected from the jugular venous catheter. In both species, samples were immediately centrifuged (12,000 rpm) to separate plasma from red blood cells. PINTA analysis of hepatic mitochondrial fluxes was employed in both rats and mice (see Example 1). Briefly, mice were infused with a two-hour primed (5 min, 3×)-continuous infusion of [3-^13C] lactate (40 μmol kg^−1 min^−1) and [1,2,3,4,5,6,6-^2H7] glucose (0.1 mg kg^−1 min^−1). Rats were infused with lactate at the same rate, as well as [3-^3H] glucose (0.1 mCi kg^−1 min^−1). At the conclusion of the study, animals were euthanized with IV pentobarbital.
Total glucose turnover (i.e. hepatic glucose production) was measured by determining the specific activity of [^3H] glucose in plasma using a scintillation counter, and the VPC/VHGP ratio was calculated using the equation
[formula] and calculated absolute VCS by dividing VPC by VPC/VCS. The derivations of each equation are described in detail in Example 1. The possible contribution of [^13C] bicarbonate to label the TCA cycle was corrected for as follows. Liver [^13C] bicarbonate enrichment was measured by GC-MS (HP-1 column: 12 m×0.2 mm×0.33 μm film, isothermal: 110° C.). Liver tissue (˜[…]) was placed in a GC-MS vial, purged with N2 gas, and sealed. To each sample, a saturated aqueous solution of citric acid (50 μl) was injected into the vial through the cap. After ten minutes, CO2 was sampled from the head-space and ions with m/z 44 and 45 daltons were monitored using electron impact ionization.
Plasma glucose concentrations were measured using a YSI Glucose Analyzer. […] Plasma NEFA concentrations were measured using the Wako NEFA assay, while plasma glycerol and plasma and liver amino acid concentrations were measured by GC/MS. […] Protein concentrations were measured by Western blot, using antibodies from Santa Cruz (PC, PEPCK, CAMKII), Cell Signaling (ATGL, pCAMKIV, CAMKIV, pCRTC2, CRTC2, pACC, ACC, pAMPK, AMPK, pHSL, HSL, GAPDH, and β-actin), Novus Biologicals (pCAMKII), Abcam (pATGL), LSBio (pInsP3R-I), and BD Transduction Laboratories (InsP3R-II, InsP3R-III, PKCε).

In the case of glucagon, the “Liver Glutamate/glutamine” value (InsP3R1 KO +glucagon) was 0.93 ± 0.10 µmol/g, the “Liver Glycine” value (InsP3R1 KO +glucagon) was 0.22 ± 0.06^+ μmol/g and the “Liver Isoleucine” value (InsP3R1 KO +glucagon) was 0.062 ± 0.011 µmol/g. For the same substance, the “Liver Lactate” value (InsP3R1 KO +glucagon) was 0.94 ± 0.24 µmol/g, the “Liver Leucine” value (InsP3R1 KO +glucagon) was 0.90 ± 0.42 µmol/g and the “Liver Phenylalanine” value (InsP3R1 KO +glucagon) was 0.091 ± 0.032 µmol/g. For the same substance, the “Liver Serine” value (InsP3R1 KO +glucagon) was 0.016 ± 0.005^+ μmol/g, the “Plasma Aspartate/asparagine” value (InsP3R1 KO after glucagon) was 0.055 ± 0.023 mM and the “Plasma Glutamate/glutamine” value (InsP3R1 KO after glucagon) was 0.27 ± 0.06 mM. For the same substance, the “Plasma Isoleucine” value (InsP3R1 KO after glucagon) was 0.54 ± 0.06 mM, the “Plasma Lactate” value (InsP3R1 KO after glucagon) was 1.31 ± 0.10 mM and the “Plasma Leucine” value (InsP3R1 KO after glucagon) was 0.66 ± 0.08 mM. The “Plasma Phenylalanine” value (InsP3R1 KO after glucagon) was 0.090 ± 0.007 mM, the “Plasma Serine” value (InsP3R1 KO after glucagon) was 0.037 ± 0.005 mM and the “Liver Glutamate/glutamine” value (WT +glucagon) was 0.74 ± 0.10 µmol/g. The “Liver Glycine” value (WT +glucagon) was 0.13 ± 0.03 µmol/g, the “Liver Isoleucine” value (WT +glucagon) was 0.033 ± 0.004 µmol/g and the “Liver Lactate” value (WT +glucagon) was 0.80 ± 0.28 µmol/g. The “Liver Leucine” value (WT +glucagon) was 0.22 ± 0.02 µmol/g, the “Liver Phenylalanine” value (WT +glucagon) was 0.040 ± 0.004 µmol/g and the “Liver Serine” value (WT +glucagon) was 0.007 ± 0.002 µmol/g. The “Plasma Aspartate/asparagine” value (WT after glucagon) was 0.013 ± 0.004 mM, the “Plasma Glutamate/glutamine” value (WT after glucagon) was 0.30 ± 0.01 mM and the “Plasma Isoleucine” value (WT after glucagon) was 0.39 ± 0.02 mM. For the same substance, the “Plasma Lactate” value (WT after glucagon) was 1.59 ± 0.39 mM, the “Plasma Leucine” value (WT after glucagon) was 0.48 ± 0.02 mM and the “Plasma Phenylalanine” value (WT after glucagon) was 0.065 ± 0.003 mM. The “Plasma Serine” value (WT after glucagon) was 0.032 ± 0.003 mM.
